{"source": "PubChem BioAssay AID1224830 (NIAID, 2016)", "screen": "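Genes whose knock-down alters the TNF-alpha reporter response to LPS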 (primary screen)", "cell system": "human THP-1 monocytic leukaemia cells, TNF dual-luciferase reporter clone, PMA-differentiated to macrophage-like cells", "reagents": "siRNA pool against human genes, 50 nM", "timing": "LPS for 4 h, given about 3 days after siRNA transfection", "conditions": "bacterial LPS (TLR4 ligand), 10 ng/ml", "measured": "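TNF firefly reporter luminescence divided by renilla, normalised to the plate median, then turned into a robust z-score for each replicate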", "direction": "TNF reporter robust z-score: higher = stronger TNF reporter response to LPS", "hit rule": "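a well is active when its z-score exceeds 2.8 or falls below -1.5; control wells carry no call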", "note": "The whole screen tested about 18,000 reagents; this is a random part of them. About 2,900 of them (16%) were called active. 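Calls are made per well; low scores hint the gene aids the LPS response, high scores that it dampens it.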 The numbers tell different reagents against one gene apart. Repeated entries: four replicate wells of each siRNA pool. No sequences are given here."}
{"gene": "HOXA4 (GeneID 3201)", "reagent no.": 1, "TNF reporter robust z-score": 1.18, "Outcome": "inactive"}
{"gene": "HOXA4 (GeneID 3201)", "reagent no.": 1, "TNF reporter robust z-score": 1.12, "Outcome": "inactive"}
{"gene": "HOXA4 (GeneID 3201)", "reagent no.": 1, "TNF reporter robust z-score": 0.7, "Outcome": "inactive"}
{"gene": "HOXA4 (GeneID 3201)", "reagent no.": 1, "TNF reporter robust z-score": 0.39, "Outcome": "inactive"}
{"gene": "C6orf58 (GeneID 352999)", "reagent no.": 1, "TNF reporter robust z-score": 2.19, "Outcome": "inactive"}
{"gene": "C6orf58 (GeneID 352999)", "reagent no.": 1, "TNF reporter robust z-score": -0.09, "Outcome": "inactive"}
{"gene": "C6orf58 (GeneID 352999)", "reagent no.": 1, "TNF reporter robust z-score": 0.01, "Outcome": "inactive"}
{"gene": "C6orf58 (GeneID 352999)", "reagent no.": 1, "TNF reporter robust z-score": -1.15, "Outcome": "inactive"}
{"gene": "PPP1R2 (GeneID 5504)", "reagent no.": 1, "TNF reporter robust z-score": -0.65, "Outcome": "inactive"}
{"gene": "PPP1R2 (GeneID 5504)", "reagent no.": 1, "TNF reporter robust z-score": -0.01, "Outcome": "inactive"}
{"gene": "PPP1R2 (GeneID 5504)", "reagent no.": 1, "TNF reporter robust z-score": -0.72, "Outcome": "inactive"}
{"gene": "PPP1R2 (GeneID 5504)", "reagent no.": 1, "TNF reporter robust z-score": -0.62, "Outcome": "inactive"}
{"gene": "ANKRD55 (GeneID 79722)", "reagent no.": 1, "TNF reporter robust z-score": -1.14, "Outcome": "inactive"}
{"gene": "ANKRD55 (GeneID 79722)", "reagent no.": 1, "TNF reporter robust z-score": -0.79, "Outcome": "inactive"}
{"gene": "ANKRD55 (GeneID 79722)", "reagent no.": 1, "TNF reporter robust z-score": -1.06, "Outcome": "inactive"}
{"gene": "ANKRD55 (GeneID 79722)", "reagent no.": 1, "TNF reporter robust z-score": -0.7, "Outcome": "inactive"}

The results go on:
{"gene": "NOL4 (GeneID 8715)", "reagent no.": 1, "TNF reporter robust z-score": 2.33, "Outcome": "inactive"}
{"gene": "NOL4 (GeneID 8715)", "reagent no.": 1, "TNF reporter robust z-score": 1.67, "Outcome": "inactive"}
{"gene": "NOL4 (GeneID 8715)", "reagent no.": 1, "TNF reporter robust z-score": 0.81, "Outcome": "inactive"}
{"gene": "NOL4 (GeneID 8715)", "reagent no.": 1, "TNF reporter robust z-score": 3.03, "Outcome": "active"}
{"gene": "UCHL5 (GeneID 51377)", "reagent no.": 1, "TNF reporter robust z-score": 0.76, "Outcome": "inactive"}
{"gene": "UCHL5 (GeneID 51377)", "reagent no.": 1, "TNF reporter robust z-score": 0.28, "Outcome": "inactive"}
{"gene": "UCHL5 (GeneID 51377)", "reagent no.": 1, "TNF reporter robust z-score": 0.43, "Outcome": "inactive"}
{"gene": "UCHL5 (GeneID 51377)", "reagent no.": 1, "TNF reporter robust z-score": 1.49, "Outcome": "inactive"}
{"gene": "MYO1D (GeneID 4642)", "reagent no.": 1, "TNF reporter robust z-score": 1.67, "Outcome": "inactive"}
{"gene": "MYO1D (GeneID 4642)", "reagent no.": 1, "TNF reporter robust z-score": 2.32, "Outcome": "inactive"}
{"gene": "MYO1D (GeneID 4642)", "reagent no.": 1, "TNF reporter robust z-score": 1.68, "Outcome": "inactive"}
{"gene": "MYO1D (GeneID 4642)", "reagent no.": 1, "TNF reporter robust z-score": 1.78, "Outcome": "inactive"}
{"gene": "KATNAL2 (GeneID 83473)", "reagent no.": 1, "TNF reporter robust z-score": -0.29, "Outcome": "inactive"}
{"gene": "KATNAL2 (GeneID 83473)", "reagent no.": 1, "TNF reporter robust z-score": -0.39, "Outcome": "inactive"}
{"gene": "KATNAL2 (GeneID 83473)", "reagent no.": 1, "TNF reporter robust z-score": -0.44, "Outcome": "inactive"}
{"gene": "KATNAL2 (GeneID 83473)", "reagent no.": 1, "TNF reporter robust z-score": -0.83, "Outcome": "inactive"}
{"gene": "MIA2 (GeneID 4253)", "reagent no.": 1, "TNF reporter robust z-score": 0.35, "Outcome": "inactive"}
{"gene": "MIA2 (GeneID 4253)", "reagent no.": 1, "TNF reporter robust z-score": 0.76, "Outcome": "inactive"}
{"gene": "MIA2 (GeneID 4253)", "reagent no.": 1, "TNF reporter robust z-score": 0.79, "Outcome": "inactive"}
{"gene": "MIA2 (GeneID 4253)", "reagent no.": 1, "TNF reporter robust z-score": 1.19, "Outcome": "inactive"}
{"gene": "MIA2 (GeneID 4253)", "reagent no.": 2, "TNF reporter robust z-score": -0.07, "Outcome": "inactive"}
{"gene": "MIA2 (GeneID 4253)", "reagent no.": 2, "TNF reporter robust z-score": 0.28, "Outcome": "inactive"}
{"gene": "MIA2 (GeneID 4253)", "reagent no.": 2, "TNF reporter robust z-score": 0.3, "Outcome": "inactive"}
{"gene": "MIA2 (GeneID 4253)", "reagent no.": 2, "TNF reporter robust z-score": -0.08, "Outcome": "inactive"}
{"gene": "PACS2 (GeneID 23241)", "reagent no.": 1, "TNF reporter robust z-score": -0.61, "Outcome": "inactive"}
{"gene": "PACS2 (GeneID 23241)", "reagent no.": 1, "TNF reporter robust z-score": -0.48, "Outcome": "inactive"}
{"gene": "PACS2 (GeneID 23241)", "reagent no.": 1, "TNF reporter robust z-score": -0.5, "Outcome": "inactive"}
{"gene": "PACS2 (GeneID 23241)", "reagent no.": 1, "TNF reporter robust z-score": -0.07, "Outcome": "inactive"}
{"gene": "CREB1 (GeneID 1385)", "reagent no.": 1, "TNF reporter robust z-score": -1.56, "Outcome": "active"}
{"gene": "CREB1 (GeneID 1385)", "reagent no.": 1, "TNF reporter robust z-score": -1.47, "Outcome": "inactive"}
{"gene": "CREB1 (GeneID 1385)", "reagent no.": 1, "TNF reporter robust z-score": -1.74, "Outcome": "active"}
{"gene": "CREB1 (GeneID 1385)", "reagent no.": 1, "TNF reporter robust z-score": -1.54, "Outcome": "active"}
